Test results from PMC11475995.
These are yes or no findings as the source states them, for the method shown. Binding seen in cells or lysates may run through a third protein. A yes stands for co-enrichment or nearness to the bait. Other partners may have been found. No binding means not detected with the bait. Blank lines part the entries; values can stand above or below the molecule they belong to.

Protein sequences, listed by entry. Tags and fused reporters are not part of them.
UniProt Q9BS16: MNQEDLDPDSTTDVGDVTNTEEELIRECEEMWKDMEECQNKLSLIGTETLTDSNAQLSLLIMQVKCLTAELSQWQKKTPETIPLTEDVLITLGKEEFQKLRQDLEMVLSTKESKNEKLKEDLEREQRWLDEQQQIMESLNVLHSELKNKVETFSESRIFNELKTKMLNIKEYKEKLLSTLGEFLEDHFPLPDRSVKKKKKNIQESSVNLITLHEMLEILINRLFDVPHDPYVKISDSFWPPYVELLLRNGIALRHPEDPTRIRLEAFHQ
UniProt P21333: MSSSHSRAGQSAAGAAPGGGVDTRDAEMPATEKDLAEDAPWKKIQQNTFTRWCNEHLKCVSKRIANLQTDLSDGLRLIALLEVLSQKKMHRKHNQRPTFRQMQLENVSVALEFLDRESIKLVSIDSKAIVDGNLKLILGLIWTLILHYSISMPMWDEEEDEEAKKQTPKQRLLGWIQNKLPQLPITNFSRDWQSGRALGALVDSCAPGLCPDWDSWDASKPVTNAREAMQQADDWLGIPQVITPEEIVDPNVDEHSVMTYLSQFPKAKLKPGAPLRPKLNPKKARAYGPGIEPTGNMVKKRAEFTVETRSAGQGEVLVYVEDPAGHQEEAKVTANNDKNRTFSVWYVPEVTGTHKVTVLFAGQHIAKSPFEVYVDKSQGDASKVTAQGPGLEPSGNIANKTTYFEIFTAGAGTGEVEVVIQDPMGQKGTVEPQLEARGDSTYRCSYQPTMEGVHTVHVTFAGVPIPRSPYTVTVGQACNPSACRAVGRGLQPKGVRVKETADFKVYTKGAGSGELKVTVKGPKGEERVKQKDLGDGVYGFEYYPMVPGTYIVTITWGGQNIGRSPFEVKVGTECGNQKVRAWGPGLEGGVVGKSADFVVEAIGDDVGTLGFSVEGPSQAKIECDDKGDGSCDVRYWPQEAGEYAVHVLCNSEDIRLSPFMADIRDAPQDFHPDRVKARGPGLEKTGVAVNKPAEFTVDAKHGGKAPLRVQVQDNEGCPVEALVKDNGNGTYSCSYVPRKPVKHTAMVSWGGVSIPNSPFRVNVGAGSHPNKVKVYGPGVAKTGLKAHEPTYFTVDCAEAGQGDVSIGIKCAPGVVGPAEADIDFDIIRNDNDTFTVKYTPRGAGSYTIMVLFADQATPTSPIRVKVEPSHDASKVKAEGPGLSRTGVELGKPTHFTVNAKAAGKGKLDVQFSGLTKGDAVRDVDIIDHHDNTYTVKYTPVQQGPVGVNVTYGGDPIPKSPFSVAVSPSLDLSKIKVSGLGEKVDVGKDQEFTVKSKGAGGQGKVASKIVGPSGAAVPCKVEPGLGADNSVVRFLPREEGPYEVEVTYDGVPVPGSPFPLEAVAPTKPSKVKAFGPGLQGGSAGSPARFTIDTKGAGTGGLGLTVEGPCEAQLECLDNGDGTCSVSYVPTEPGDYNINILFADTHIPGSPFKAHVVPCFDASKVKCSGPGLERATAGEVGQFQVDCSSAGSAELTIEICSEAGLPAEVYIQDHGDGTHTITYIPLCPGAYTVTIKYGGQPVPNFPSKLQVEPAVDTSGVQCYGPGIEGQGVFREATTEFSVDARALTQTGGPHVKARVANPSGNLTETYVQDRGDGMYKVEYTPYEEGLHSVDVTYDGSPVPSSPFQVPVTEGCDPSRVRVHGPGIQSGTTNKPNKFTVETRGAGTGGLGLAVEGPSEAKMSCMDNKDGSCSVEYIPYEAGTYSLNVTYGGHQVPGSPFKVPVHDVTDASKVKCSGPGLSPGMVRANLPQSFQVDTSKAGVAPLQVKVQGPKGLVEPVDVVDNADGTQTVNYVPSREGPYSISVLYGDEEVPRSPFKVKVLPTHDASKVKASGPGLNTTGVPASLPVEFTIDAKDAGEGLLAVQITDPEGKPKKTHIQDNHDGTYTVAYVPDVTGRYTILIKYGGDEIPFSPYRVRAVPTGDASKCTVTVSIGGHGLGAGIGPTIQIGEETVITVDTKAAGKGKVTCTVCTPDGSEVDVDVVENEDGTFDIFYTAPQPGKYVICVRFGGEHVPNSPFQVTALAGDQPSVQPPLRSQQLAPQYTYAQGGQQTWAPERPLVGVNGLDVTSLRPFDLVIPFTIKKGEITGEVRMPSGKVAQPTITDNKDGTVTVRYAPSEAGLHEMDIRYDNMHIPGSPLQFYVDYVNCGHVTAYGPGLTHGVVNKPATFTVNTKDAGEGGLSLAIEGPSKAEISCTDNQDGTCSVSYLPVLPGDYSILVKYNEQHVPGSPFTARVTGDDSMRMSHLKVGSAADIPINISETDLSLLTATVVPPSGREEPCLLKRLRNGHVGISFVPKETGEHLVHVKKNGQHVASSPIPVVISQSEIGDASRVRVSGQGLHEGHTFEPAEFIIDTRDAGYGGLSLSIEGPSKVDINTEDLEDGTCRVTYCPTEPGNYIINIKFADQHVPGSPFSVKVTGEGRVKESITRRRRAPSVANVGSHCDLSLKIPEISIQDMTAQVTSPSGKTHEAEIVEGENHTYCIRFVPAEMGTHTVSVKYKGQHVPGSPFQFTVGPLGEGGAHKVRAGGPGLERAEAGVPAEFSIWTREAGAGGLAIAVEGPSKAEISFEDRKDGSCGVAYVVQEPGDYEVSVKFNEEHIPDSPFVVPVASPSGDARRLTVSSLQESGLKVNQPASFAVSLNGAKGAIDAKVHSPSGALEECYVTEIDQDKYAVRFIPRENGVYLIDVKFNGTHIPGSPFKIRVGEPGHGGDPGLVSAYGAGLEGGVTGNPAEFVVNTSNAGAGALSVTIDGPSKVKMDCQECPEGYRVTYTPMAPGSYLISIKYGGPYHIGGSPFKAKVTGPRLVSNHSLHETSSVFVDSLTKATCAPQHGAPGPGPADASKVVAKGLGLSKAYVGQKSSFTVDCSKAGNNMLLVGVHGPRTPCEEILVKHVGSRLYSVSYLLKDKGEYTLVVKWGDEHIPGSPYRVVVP

Target: wild-type CENPK (full-length CENPK), Flag–GFP–CENPK construct (human) (UniProt Q9BS16)
Assay: affinity purification with mass spectrometry; IP with tag (Flag) antibody and Protein A/G magnetic beads from lysates of LNCaP cells overexpressing CENPK–delta8 or wild-type CENPK (empty vector as control); cells treated with Abiraterone; IP Lysis buffer pH 7.4, 0.025 M Tris, 0.15 M NaCl, 0.001 M EDTA, 1% NP40, 5% glycerol; 4 °C overnight; silver-stained bands cut for MS

binding: no binding
Molecule: FLNA (from UniProt P21333 1-2647)

binding: no binding
B1: FLOT1 (protein, UniProt O75955 1-427)
chain: MFFTCGPNEAMVVSGFCRSPPVMVAGGRVFVLPCIQQIQRISLNTLTLNVKSEKVYTRHGVPISVTGIAQVKIQGQNKEMLAAACQMFLGKTEAEIAHIALETLEGHQRAIMAHMTVEEIYKDRQKFSEQVFKVASSDLVNMGISVVSYTLKDIHDDQDYLHSLGKARTAQVQKDARIGEAEAKRDAGIREAKAKQEKVSAQYLSEIEMAKAQRDYELKKAAYDIEVNTRRAQADLAYQLQVAKTKQQIEEQRVQVQVVERAQQVAVQEQEIARREKELEARVRKPAEAERYKLERLAEAEKSQLIMQAEAEAASVRMRGEAEAFAIGARARAEAEQMAKKAEAFQLYQEAAQLDMLLEKLPQVAEEISGPLTSANKITLVSSGSGTMGAAKVTGEVLDILTRLPESVERLTGVSISQVNHKPLRTA
